Laboratory results from PubChem BioAssay AID504848 (National Center for Advancing Translational Sciences (NCATS), 2011).
Among all 2,300 compounds or so, about 1,400 (61%) were called active. The set was probably picked from earlier hits. The shares of active, inactive and inconclusive entries below differ from those in the screen. Calls come from the whole dose curve; as a rule, active = well fitted inhibition curve with a large enough effect; inconclusive = small, poorly fitted or top-dose-only effect, or effect the other way; inactive = no such curve, though single readings can be large or run the other way. Where the call is inconclusive, the potency comes from a doubtful curve fit.

Experiment: Confirmation screen for delayed death inhibitors of the malarial parasite plastid, 96 hour incubation; note: nearly all actives have a fitted effect of over 60% in size
Settings: P. falciparum luciferase growth in erythrocytes; series mostly up to 28.7 µM; activity change, negative = inhibition: at the top concentration
Outline: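 Two-generation (96 h, 37 C) exposure of P. falciparum carrying an integrated firefly luciferase reporter in erythrocytes, 0.1% parasitemia and 2% hematocrit final, Albumax-supplemented RPMI. Luminescence decrease measures growth inhibition.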
% is set by controls: 0 for no effect and ±100 for the full control effect; potency is the fitted concentration of half-maximal effect.

| SMILES | Potency | activity change, negative = inhibition |
| --- | --- | --- |
| CCN(CC)[C@@H](C)CN1c2ccccc2Sc2ccccc21 | inconclusive: 8.91 µM [inhibitor, single point] | – |
| CN(CCOc1ccccc1)C(=O)C1CCC(=O)N(CCN2CCOCC2)C1 (stereo not drawn) | – | inactive: 4.57% |
| COc1ccc(C)c2sc(NC(=O)CCS(=O)(=O)c3ccccc3)nc12 | – | inactive: -23.6% |
| Cc1[nH]c2ccc(-c3nnc(SCC(=O)c4ccccc4F)o3)cc2c1C | inconclusive: 12.6 µM [inhibitor, partial curve, poor fit] | – |
| CCc1nnc(NC(=O)CSc2nc3cccnc3n2C2CCCCC2)s1 | – | inactive: -93.7% |
| COc1cccc(C(=O)NC2CC(C)(C)Cc3c2cnn3-c2cccc(F)c2)c1OC (stereo not drawn) | active: 12.6 µM | – |
| CCOc1ccc(-c2cc(C(=O)O)c3ccccc3n2)cc1 | inconclusive: 4.47 µM [activator, partial curve, poor fit] | – |
| CC1(C)CC(=O)C=C(NC2=CC3OC(c4ccccc4)OCC3OC2=O)C1 (stereo not drawn) | inconclusive: 7.94 µM [inhibitor, single point] | – |
| Cc1ccc(-n2nnnc2Sc2nc([N+](=O)[O-])nn2C)cc1C | active: 3.16 µM | – |
| O=C(Nc1cccc([N+](=O)[O-])c1)c1ccc2nsnc2c1 | – | inactive: 3.84% |
| CCOC(=O)C[n+]1ccc2c([nH]c3ccccc32)c1C | inconclusive: 14.1 µM [inhibitor, single point] | – |
| CC(C)(C(=O)N[C@H](CO)c1ccccc1)C(=O)N[C@H](CO)c1ccccc1 | – | inactive: -4.34% |
| O=C(Cc1coc2ccc3ccccc3c12)Nc1nnc(C2CC2)s1 | inconclusive: 15.8 µM [inhibitor, single point] | – |
| O=C(Nc1ccccc1[N+](=O)[O-])c1cc(S(=O)(=O)N2CCOCC2)cs1 | active: 14.1 µM | – |
| Fc1ccc(CSc2nncn2NCc2ccc3c(c2)OCO3)cc1 | – | inactive: -15.7% |
| CC(C)NC(=O)c1ccc(Sc2ccccc2)c([N+](=O)[O-])c1 | inconclusive: 10 µM [inhibitor, partial curve, poor fit] | – |
| C=CCNC(=O)c1onc(CSc2ccccc2CC)c1C(=O)O | inconclusive: 0.631 µM [inhibitor, full curve, poor fit] | – |
| COCc1c(C(=O)OCc2nc(N)nc(Nc3ccccc3C)n2)oc2ccccc12 | inconclusive: 11.2 µM [inhibitor, partial curve] | – |
| C=CCNC(=O)c1onc(CSc2cc(C)ccc2C)c1C(=O)O | inconclusive: 2.82 µM [inhibitor, full curve] | – |
| CSC1=NC(C)(C)C=C(/C=C/c2ccc(Cl)cc2)N1 | active: 4.47 µM | – |
| CCOc1ccccc1NC(=S)N1CCN(c2cccc(OC)c2)CC1 | inconclusive: 11.2 µM [inhibitor, partial curve] | – |
| Cc1nn(C)c(C)c1C(C)NC(=O)c1ccc(OC2CCN(Cc3ccccn3)CC2)cc1 (stereo not drawn) | – | inactive: -14.3% |
| C=CCn1cccc(/C=C/C(=O)c2ccc(C(C)(C)C)cc2)c1=S | active: 0.794 µM | – |
| COCCNCC(=O)NC12CC3CC(CC(C3)C1)C2 | – | inactive: -4.43% |
| Cc1ccc(Cn2ccnc2SCC(=O)NC2CCCC2)cc1 | inconclusive: 12.6 µM [inhibitor, single point] | – |

| SMILES | Potency | activity change, negative = inhibition |
| --- | --- | --- |
| COC(=O)c1ccc(CNCC(=O)Nc2ccc(C(=O)OC)cc2)cc1 | – | inactive: -15.1% |
| O=C(Nn1c(-c2ccccc2)nc2ccccc2c1=O)c1ccco1 | – | inactive: 22.9% |
| COc1cccc(NC(=O)C2CCN(S(=O)(=O)c3ccc4[nH]c(=O)oc4c3)CC2)c1 | inconclusive: 14.1 µM [inhibitor, partial curve, poor fit] | – |
| COc1ccc(C)cc1NC(=O)c1ccccc1N(C)S(=O)(=O)c1ccccc1 | inconclusive: 15.8 µM [inhibitor, single point] | – |
| Cc1ccccc1-c1cc(C(=O)n2cccn2)c2cc(Cl)ccc2n1 | – | inactive: -12.5% |
| COc1cc(/C=C2\C(=N)N3N=C(N4CCOCC4)SC3=NC2=O)ccc1OC(=O)c1ccccc1 | inconclusive: 10 µM [inhibitor, partial curve, poor fit] | – |
| O=C(NNC(=O)c1ccc(Br)s1)c1ccc(F)c(S(=O)(=O)N2CCOCC2)c1 | inconclusive: 14.1 µM [inhibitor, partial curve, poor fit] | – |
| O=C(c1ccc(CS(=O)c2ccccc2Cl)o1)N1CCN(c2ccccn2)CC1 (stereo not drawn) | active: 1.41 µM | – |
| COC(=O)C(Cc1ccc(OC(=O)c2ccc(C(F)(F)F)cc2)cc1)N1Cc2ccccc2C1=O (stereo not drawn) | inconclusive: 10 µM [activator, partial curve] | – |
| N=c1c2c3c(sc2ncn1Cc1ccccc1)CCCC3 | – | inactive: -12.3% |
| CCOC(=O)[C@H]1[C@H]2COc3cc(OC)ccc3[C@@H]2N2C(=O)N(c3ccc(Cl)cc3)C(=O)[C@@]12C | – | inactive: -105% |
| Cc1n[nH]c(=S)n(/N=C/c2ccccn2)c1=O | – | inactive: -15.7% |
| COc1nc(NC(=O)c2ccc(F)cc2)nc(OC)c1-c1ccccc1 | inconclusive: 12.6 µM [inhibitor, partial curve, poor fit] | – |
| CCN=c1scc(-c2ccccc2)n1/N=C/c1ccccn1 | inconclusive: 6.31 µM [inhibitor, full curve, poor fit] | – |
| COc1ccc(/C=C/C(=O)c2ccc(NS(=O)(=O)c3ccc(C)cc3)cc2)cc1O | active: 7.08 µM | – |
| O=C(CCCN1C(=O)/C(=C\c2cccs2)SC1=S)Nc1ccc(O)cc1 | active: 3.98 µM | – |
| CCCSc1sc(C(=O)OC)c(-c2cccs2)c1C#N | – | inactive: -103% |
| COC(=O)N/N=C(\C)c1ccccc1OC(F)F | inconclusive: 5.01 µM [inhibitor, single point] | – |
| COc1ccccc1N(Cc1ccccc1)S(=O)(=O)c1cccc(C(=O)Nc2cc(C)ccn2)c1 | inconclusive: 3.98 µM [inhibitor, partial curve, poor fit] | – |
| Cn1ncc2c(Nc3ccc(-c4ccccc4)cc3)ncnc21 | inconclusive: 17.8 µM [inhibitor, single point] | – |
| O=C(Cc1n[nH]c(=O)c2ccccc12)OCc1c(Cl)cccc1Cl | – | inactive: -5.11% |
| CC(=O)N1CCc2cc(S(=O)(=O)N3CC(C)CC(C)C3)ccc21 (stereo not drawn) | active: 8.91 µM | – |
| O=C(NC1CCCc2c1cnn2-c1ccccc1F)c1ccccn1 (stereo not drawn) | inconclusive: 12.6 µM [inhibitor, partial curve, poor fit] | – |
| Cc1cccc(OCC(=O)NNc2c3ccccc3nc3ccccc23)c1 | active: 4.47 µM | – |
| N=c1c2c(n(Cc3ccc(Cl)cc3)c3c1CCC3)CCC2 | inconclusive: 0.112 µM [inhibitor, full curve, poor fit] | – |

| SMILES | Potency | activity change, negative = inhibition |
| --- | --- | --- |
| Cn1cc([N+](=O)[O-])c(C(=O)Nc2ccc(C3CCCCC3)cc2)n1 | inconclusive: 0.355 µM [inhibitor, full curve, poor fit] | – |
| O=C(/C=C/c1ccccc1)c1ccc2c(c1)OCCCCO2 | inconclusive: 2 µM [activator, full curve, poor fit] | – |
| Cc1ccc(C)c(OCCCN2CCc3ccccc3C2)c1 | inconclusive: 12.6 µM [inhibitor, partial curve, poor fit] | – |
| CC(C)(C)Sc1ccc([N+](=O)[O-])cc1C(=O)Nc1ccncc1 | active: 2.51 µM | – |
| CN(C)c1cc[n+](Cc2c(Cl)cccc2Cl)cc1 | inconclusive: 1.41 µM [inhibitor, full curve, poor fit] | – |
| Cc1cccc(C)c1NC(=O)CCCSc1nnc(-c2ccc(F)cc2)n1-c1ccccc1 | inconclusive: 15.8 µM [inhibitor, partial curve, poor fit] | – |
| Cc1nnsc1C(=O)Nc1ccccc1 | inconclusive: 15.8 µM [inhibitor, single point] | – |
| O=C(NCc1ccc2c(c1)OCO2)c1nc(S(=O)(=O)Cc2ccccc2)ncc1Cl | inconclusive: 5.01 µM [inhibitor, single point] | – |
| COc1ccc(CNS(=O)(=O)c2ccc3c(c2)N(C(C)=O)CC(C)S3)cc1 (stereo not drawn) | inconclusive: 7.08 µM [inhibitor, partial curve] | – |
| CSc1ccc(CNc2cccc3ccccc23)cc1 | – | inactive: -25.4% |
| O=S(=O)(c1ccc(F)c(Cl)c1)N1CCN(C/C=C/c2ccccc2)CC1 | inconclusive: 14.1 µM [inhibitor, single point] | – |
| CCc1ccccc1-n1nnnc1SCC(=O)Nc1cc(C)on1 | inconclusive: 11.2 µM [inhibitor, partial curve, poor fit] | – |
| O=C(CCN1C(=O)C2CC=C(Cl)CC2C1=O)NCc1ccccc1 (stereo not drawn) | – | inactive: -21.1% |
| O=C(NCCCn1ccnc1)C(=O)NCC1OCCN1S(=O)(=O)c1ccc(F)cc1 (stereo not drawn) | – | inactive: -11.4% |
| Cc1cc(C)nc(SCC(=O)c2ccc(C)c(C)c2)n1 | active: 12.6 µM | – |
| Cc1cc(-c2ccc(C(C)C)c(S(=O)(=O)NCc3ccco3)c2)on1 | active: 14.1 µM | – |
| O=C(O)/C=C/C(=O)NNC(=O)c1ccc(Cl)cc1Cl | inconclusive: 15.8 µM [inhibitor, single point] | – |
| CC(C)c1ccc(/C=C/C(=O)NC(=S)NN2CCOCC2)cc1 | inconclusive: 15.8 µM [inhibitor, partial curve, poor fit] | – |
| Nc1nc(N)nc(-c2cc([N+](=O)[O-])ccc2O)n1 | inconclusive: 3.98 µM [inhibitor, full curve] | – |
| COc1ccc([N+](=O)[O-])c(S(=O)(=O)c2ccc(Cl)cc2)n1 | inconclusive: 22.4 µM [inhibitor, single point] | – |
| O=C(O)c1ccccc1N/N=C/c1cc(Br)cc(Br)c1O | inconclusive: 12.6 µM [activator, partial curve] | – |
| COc1ccc(NC2CCCN(C(=O)CCc3ccncc3)C2)cc1OC (stereo not drawn) | – | inactive: -18.3% |
| Cc1ccnc(NCc2ccc(Cl)cc2)c1 | inconclusive: 1.41 µM [inhibitor, partial curve] | – |

Shown with tabs: five of the compounds above.
SMILES	Potency	activity change, negative = inhibition
CCOc1ccccc1NC(=S)N1CCN(c2cccc(OC)c2)CC1	inconclusive: 11.2 µM [inhibitor, partial curve]	–
Cc1nn(C)c(C)c1C(C)NC(=O)c1ccc(OC2CCN(Cc3ccccn3)CC2)cc1 (stereo not drawn)	–	inactive: -14.3%
C=CCn1cccc(/C=C/C(=O)c2ccc(C(C)(C)C)cc2)c1=S	active: 0.794 µM	–
COCCNCC(=O)NC12CC3CC(CC(C3)C1)C2	–	inactive: -4.43%
Cc1ccc(Cn2ccnc2SCC(=O)NC2CCCC2)cc1	inconclusive: 12.6 µM [inhibitor, single point]	–
